# Patent US20230168255A1, “UNBLENDING OF TRANSCRIPTIONAL CONDENSATES IN HUMAN REPEAT EXPANSION DISEASE” (Max-Planck-Gesellschaft zur Förderung der Wissenschaften …, priority 2020, published 2023)
# Protein sequences, listed by entry. Tags and fused reporters are not part of them. Lines headed by an entry give the natural chain unless they say otherwise; changes in a name come on top. Residues count along the entry.
# UniProt Q15648, residues 948-1574: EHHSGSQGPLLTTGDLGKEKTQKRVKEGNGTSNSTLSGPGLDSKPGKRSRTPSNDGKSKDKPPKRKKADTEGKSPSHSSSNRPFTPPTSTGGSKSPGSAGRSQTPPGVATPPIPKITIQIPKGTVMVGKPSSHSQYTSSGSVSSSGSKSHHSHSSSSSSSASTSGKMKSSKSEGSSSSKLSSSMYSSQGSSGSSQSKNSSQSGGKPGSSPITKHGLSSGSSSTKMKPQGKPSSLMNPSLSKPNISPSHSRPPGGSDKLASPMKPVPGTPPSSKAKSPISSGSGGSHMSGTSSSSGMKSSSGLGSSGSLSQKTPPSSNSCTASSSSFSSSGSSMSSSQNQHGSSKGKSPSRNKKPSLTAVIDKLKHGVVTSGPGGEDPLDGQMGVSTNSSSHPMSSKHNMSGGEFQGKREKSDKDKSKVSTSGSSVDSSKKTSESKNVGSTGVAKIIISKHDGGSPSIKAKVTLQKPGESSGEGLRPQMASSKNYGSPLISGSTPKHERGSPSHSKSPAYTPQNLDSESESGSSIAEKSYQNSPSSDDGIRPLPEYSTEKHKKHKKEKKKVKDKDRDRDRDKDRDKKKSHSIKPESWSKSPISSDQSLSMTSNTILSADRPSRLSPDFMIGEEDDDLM
# UniProt P31271: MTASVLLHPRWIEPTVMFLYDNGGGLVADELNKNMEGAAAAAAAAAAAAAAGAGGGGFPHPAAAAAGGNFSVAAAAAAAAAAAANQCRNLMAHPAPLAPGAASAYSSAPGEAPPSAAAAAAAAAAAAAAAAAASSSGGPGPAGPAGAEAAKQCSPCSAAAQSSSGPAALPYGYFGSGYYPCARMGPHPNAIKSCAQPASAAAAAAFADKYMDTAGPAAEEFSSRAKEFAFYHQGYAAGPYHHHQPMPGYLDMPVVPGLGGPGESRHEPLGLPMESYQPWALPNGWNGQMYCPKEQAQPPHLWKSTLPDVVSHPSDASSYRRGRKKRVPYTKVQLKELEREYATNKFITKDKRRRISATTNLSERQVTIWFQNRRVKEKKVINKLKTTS
# UniProt Q13950, residues 1-100: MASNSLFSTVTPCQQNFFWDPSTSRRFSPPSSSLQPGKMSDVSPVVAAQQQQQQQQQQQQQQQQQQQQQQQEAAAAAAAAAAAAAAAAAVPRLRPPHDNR
# No constants are given. Whether binding was seen depends on the method and setting. Some entries that bind do so weakly or less than the wild type.
# Target: Med1 IDR-GFP fusion protein (purified, recombinant) (UniProt Q15648)
# Test: in vitro droplet mixing of purified proteins with 10% PEG-8000
row,Substance,binding
1,Hoxa13 wt IDR-mCherry fusion protein (purified) (from UniProt P31271 30-227),binds
2,Runx2 wt IDR-mCherry fusion protein (purified) (from UniProt Q13950 1-100),binds
